In all, about 300,000 compounds went through this assay and about 3,700 (1.2%) were called active. The inconclusive results got no clear call from the source; some entries with a clear call stand among them for comparison. The call rests on the fitted dose curve; tested in HEK293 cells. Potencies of inconclusive entries are doubtful fits and often do not repeat.
Assay: qHTS for Inhibitors of binding or entry into cells for Lassa Virus; further: nearly all actives have a fitted effect of over 50% in size
Details: Lassa virus pseudotype entry inhibition, cell reporter; series mostly up to 37.9 µM
Potency means the concentration at half of the fitted maximal effect.

Q: Which Potency does the source give for Cc1ccc(CSC2=Nc3ccccc3C3=NC(CCC(=O)NCc4cccs4)C(=O)N23)cc1 (stereo unspecified) here?
A: Its Potency is inconclusive: 31.6 µM [inhibitor, single point].

Q: With COc1ccc(C(=O)Nc2ccc(O)cc2C(=O)O)cc1 as the compound, how does the Potency read?
A: The Potency was inconclusive: 6.51 µM [inhibitor, full curve].

Q: For CCOc1ccc(CNc2ccc(N3CCN(Cc4ccccc4)CC3)cc2)cc1, which Potency is on record?
A: The Potency was inconclusive: 6.31 µM [inhibitor, single point].

Q: With O=C(NCc1ccccn1)C1CC(c2ccccc2O)=NO1 (stereo unspecified) as the compound, how does the Potency read?
A: Its Potency is inconclusive: 12.6 µM [inhibitor, single point].

Q: Which Potency does the source give for CN1C(=O)NC(NC(=O)c2ccncc2)(C(F)(F)F)C1=O (stereo unspecified) here?
A: Its Potency is inconclusive: 32.6 µM [activator, single point].

Q: With O=C(NCc1ccc2c(c1)OCO2)c1ccc2c(c1)N(Cc1cccc(Cl)c1)C(=O)c1ccccc1S2=O (stereo unspecified) as the compound, how does the Potency read?
A: Its Potency is “inactive”.

Q: For COc1ccc(-c2c(C#N)c(N)nc3c2CCc2ccccc2-3)cc1OC, which Potency is on record?
A: Its Potency is inconclusive: 14.6 µM [inhibitor, partial curve, poor fit].

Q: With CSc1nnc(SCC#N)s1 as the compound, how does the Potency read?
A: Its Potency is inconclusive: 1 µM [activator, full curve, poor fit].

Q: With CCS(=O)(=O)N1CCC(C(=O)Oc2ccccc2Br)CC1 as the compound, how does the Potency read?
A: The Potency was inconclusive: 5.62 µM [inhibitor, single point].

Q: With COc1ccc(/C=C/C(=O)NCC(=O)N/N=C/c2ccc(OC)cc2)cc1 as the compound, how does the Potency read?
A: The Potency was inconclusive: 17.8 µM [inhibitor, partial curve, poor fit].

Q: Which Potency does the source give for COc1ccc(C(=O)N2CCCC(CCC(=O)N3CCN(c4ccccn4)CC3)C2)cc1 (stereo unspecified) here?
A: The Potency was inconclusive: 35.5 µM [inhibitor, single point].

Q: For O=[N+]([O-])c1ccccc1/C=N/N1CCN(c2ccncc2S(=O)(=O)N2CCCCC2)CC1, which Potency is on record?
A: The Potency was inconclusive: 11.2 µM [inhibitor, partial curve].

Q: With S=c1[nH]nc(-c2ccc(Cl)cc2Cl)n1-c1ccc2c(c1)OCCO2 as the compound, how does the Potency read?
A: Its Potency is inconclusive: 6.31 µM [inhibitor, single point].

Q: For CN(CCc1cnn(C)c1)Cc1cn(C)nc1-c1ccc2c(c1)OCCO2, which Potency is on record?
A: Its Potency is “inactive”.

Q: For CCOC(=O)CNC(=O)CSc1ccc(-c2nc3ccccc3[nH]2)cn1, which Potency is on record?
A: Its Potency is “inactive”.

Q: With CN(C)c1ccc(P(=O)(OC2CCCCC2)C(Nc2ccccc2)c2cccnc2)cc1 (stereo unspecified) as the compound, how does the Potency read?
A: The Potency was inconclusive: 6.31 µM [inhibitor, single point].

Q: Which Potency does the source give for COc1ccc(NC(=O)c2sc(Cl)nc2-c2ccccc2)cc1 here?
A: The Potency was inconclusive: 5.8 µM [inhibitor, single point].

Q: For CC[n+]1c(/C=C/N(C)c2ccccc2)oc2ccccc21, which Potency is on record?
A: Its Potency is inconclusive: 35.5 µM [inhibitor, single point].

Q: With O=C(c1ccc(Cl)cc1)N1CCN(c2ccc([N+](=O)[O-])c(NCc3cccnc3)c2)CC1 as the compound, how does the Potency read?
A: The Potency was inconclusive: 17.8 µM [inhibitor, single point].

Q: For Cc1cc(C)n(Cc2ccc(NC(=O)c3ccc(COc4ccccc4Br)cc3)cc2)n1, which Potency is on record?
A: The Potency was inconclusive: 1.46 µM [inhibitor, partial curve, poor fit].

Q: For CCCC1=Nc2cc(C(=O)NCCc3ccc(OCC)cc3)ccc2Sc2ccccc21, which Potency is on record?
A: Its Potency is inconclusive: 6.31 µM [inhibitor, full curve, poor fit].

Q: Which Potency does the source give for O=C(NCc1ccccc1)C1CCCN(c2ncnc3c2nc2n3CCCCC2)C1 (stereo unspecified) here?
A: Its Potency is inconclusive: 31.6 µM [inhibitor, partial curve, poor fit].

Q: For COc1ccc([N+](=O)[O-])cc1NC(=O)Nc1cccc(Cl)c1, which Potency is on record?
A: Its Potency is “inactive”.

Q: Which Potency does the source give for CCOC(=O)N1CCN(Cc2ccccc2Cl)CC1 here?
A: The Potency was “inactive”.

Q: For COc1ccc(S(=O)(=O)N(CC(=O)NCC2CCCO2)Cc2ccccc2)cc1 (stereo unspecified), which Potency is on record?
A: Its Potency is inconclusive: 2.82 µM [inhibitor, single point].

Q: For O=C(c1cc2nc(-c3ccco3)cc(C(F)(F)F)n2n1)N1CCN(c2ccccn2)CC1, which Potency is on record?
A: The Potency was inconclusive: 22.4 µM [inhibitor, single point].

Q: Which Potency does the source give for COc1cc(C2C(C#N)=C(N)Oc3cc(N(C)C)ccc32)cc2c1OCO2 (stereo unspecified) here?
A: The Potency was active: 0.517 µM.

Q: With CC(=O)c1ccc(NC(=O)c2ccc3c(c2)nnn3C2CCCC2)cc1 as the compound, how does the Potency read?
A: Its Potency is inconclusive: 5.01 µM [activator, full curve].

Q: For CCOc1ccc(C(=O)CSc2nc3cc(C(=O)NC4CCCC4)ccc3c(=O)n2CC2CCCO2)cc1 (stereo unspecified), which Potency is on record?
A: The Potency was “inactive”.

Q: With COC(=O)N1CCN(c2ccc(OC)cc2)CC1 as the compound, how does the Potency read?
A: The Potency was “inactive”.

Q: For Cc1cccc(C(=O)Nc2ccc(C(=O)OCc3cc(=O)n4c5c(sc4n3)CCCC5)cc2)c1, which Potency is on record?
A: Its Potency is “inactive”.

Q: With Cc1ccc(C(=O)N2CCCC(CCC(=O)NCc3ccccc3F)C2)cn1 (stereo unspecified) as the compound, how does the Potency read?
A: Its Potency is “inactive”.

Q: Which Potency does the source give for Cc1ccccc1CNC(=O)Cn1ccc2cc(S(=O)(=O)N3CCCCC3)ccc21 here?
A: Its Potency is “inactive”.

Q: With CCC(=O)Nc1ccccc1C(=O)C(=O)Nc1ccccc1 as the compound, how does the Potency read?
A: Its Potency is inconclusive: 11.6 µM [activator, partial curve].

Q: Which Potency does the source give for COc1ccc(Cl)cc1NC(=O)CN(C)C(C)C(=O)NCC1CCCCC1 (stereo unspecified) here?
A: Its Potency is “inactive”.

Q: Which Potency does the source give for COc1ccc2nc(NC(=O)C3CC(=O)N(c4ccc5c(c4)OCCO5)C3)sc2c1 (stereo unspecified) here?
A: Its Potency is “inactive”.

Q: Which Potency does the source give for CCCc1nn2c(=O)cc(COC(=O)c3cccs3)nc2s1 here?
A: Its Potency is “inactive”.

Q: Which Potency does the source give for CCCCCCCC/C=C\CCCCCCCC(=O)NCc1ccc(O)c(OC)c1 here?
A: Its Potency is inconclusive: 29.1 µM [inhibitor, single point].

Q: Which Potency does the source give for CCOC(=O)N1CCN(C(=O)c2ccc(CS(=O)(=O)c3ccccc3OC)o2)CC1 here?
A: The Potency was “inactive”.

Q: For CCCCOc1ccc(C(=O)NCc2ccncc2)cc1, which Potency is on record?
A: The Potency was “inactive”.

Q: For COc1ccc(O)c(C(=O)/C=C/c2cc3ccccc3o2)c1, which Potency is on record?
A: The Potency was inconclusive: 8.91 µM [inhibitor, partial curve, poor fit].

Q: Which Potency does the source give for O=C(Nc1ccc(-c2nc3cc(NC(=O)c4ccccc4F)ccc3o2)cc1)c1ccccc1F here?
A: Its Potency is “inactive”.

Q: For CCOC(=O)c1c(C)nc2sc(C(N)=O)c(N)c2c1-c1ccccc1, which Potency is on record?
A: The Potency was “inactive”.

Q: Which Potency does the source give for Cn1c(N)c(C(=O)COC(=O)Cc2ccc(Cl)cc2)c(=O)n(C)c1=O here?
A: Its Potency is “inactive”.

Q: For COc1ccc(Cc2nnc(NC(=O)C3CCN(C(=O)c4ccco4)CC3)s2)cc1, which Potency is on record?
A: Its Potency is inconclusive: 25.1 µM [inhibitor, single point].

Q: With COc1ccc2cc(C(C)C(=O)N3CCC(C)CC3)ccc2c1 (stereo unspecified) as the compound, how does the Potency read?
A: Its Potency is inconclusive: 10 µM [inhibitor, partial curve, poor fit].

Q: With Cc1ccc(-c2nc3cc(N)ccc3o2)cc1Br as the compound, how does the Potency read?
A: Its Potency is inconclusive: 3.55 µM [inhibitor, full curve].

Q: For COc1ccc(C2CC2/C(=N/O)c2ccccn2)cc1 (stereo unspecified), which Potency is on record?
A: The Potency was “inactive”.

Q: For Cc1cccc(N(C(=O)c2snc(C(N)=O)c2N)C(C(=O)NC2CCCC2)c2ccc(C)o2)c1 (stereo unspecified), which Potency is on record?
A: The Potency was inconclusive: 35.5 µM [inhibitor, single point].

Q: With Cc1cccc(NC(=O)Cn2cc(C(=O)C3CCCCC3)c3ccccc32)c1C as the compound, how does the Potency read?
A: Its Potency is “inactive”.

Q: Which Potency does the source give for O=C1c2ccccc2NC(c2cccc([N+](=O)[O-])c2)N1CCc1ccccc1 (stereo unspecified) here?
A: Its Potency is inconclusive: 28.2 µM [inhibitor, single point].

Q: For COc1ccc(N2CCN(c3cc(C)c4ccc(C)cc4n3)CC2)cc1, which Potency is on record?
A: The Potency was inconclusive: 1.41 µM [inhibitor, single point].

Q: Which Potency does the source give for CC(=O)N/C(=C\c1ccc(F)cc1)C(=O)OCc1ccccc1 here?
A: The Potency was “inactive”.

Q: Which Potency does the source give for Cc1c(-c2ccccn2)c(=O)[nH]n1-c1ccc(F)cc1 here?
A: The Potency was “inactive”.

Q: With CCOC(=O)c1ccc(Nc2nc3nonc3nc2Nc2cccc(C)c2C)cc1 as the compound, how does the Potency read?
A: The Potency was inconclusive: 2.82 µM [inhibitor, full curve, poor fit].

Q: For N=c1ccn2c(n1)O[C@H]1[C@H](O)[C@@H](CO)O[C@H]12, which Potency is on record?
A: Its Potency is inconclusive: 1.16 µM [inhibitor, full curve].

Q: Which Potency does the source give for O=C(NCc1ccccc1)c1cc[n+](CC(=O)c2cccs2)cc1 here?
A: The Potency was “inactive”.

Q: With COCOc1ccc(OC)cc1C(=O)C=Cc1ccc(OC)c(Br)c1 as the compound, how does the Potency read?
A: Its Potency is inconclusive: 0.299 µM [inhibitor, full curve, poor fit].

Q: With Cc1nc(-c2ccccc2)sc1-c1ccc(SCC(=O)NCc2ccccc2)nn1 as the compound, how does the Potency read?
A: The Potency was inconclusive: 11.2 µM [inhibitor, single point].

Q: With CCCNC(=O)C1CCC(CNS(=O)(=O)c2ccc3c(c2)N(C(C)=O)CCO3)CC1 (stereo unspecified) as the compound, how does the Potency read?
A: The Potency was inconclusive: 35.5 µM [activator, single point].

Q: For Cc1c(NC(=O)c2cccc(NC(=O)COc3ccccc3C#N)c2)c(=O)n(-c2ccccc2)n1C, which Potency is on record?
A: Its Potency is inconclusive: 0.316 µM [inhibitor, full curve, poor fit].

Q: With O=C(Cn1cc(SCc2ccccc2F)c2ccccc21)N1CCCCCC1 as the compound, how does the Potency read?
A: The Potency was inconclusive: 35.5 µM [inhibitor, single point].

Q: With O=C(NCCNC(=O)c1ccc(Cl)cc1Cl)c1ccco1 as the compound, how does the Potency read?
A: Its Potency is “inactive”.

Q: With Cc1c(OCC(F)(F)F)ccnc1CSc1nc2ccccc2[nH]1 as the compound, how does the Potency read?
A: The Potency was inconclusive: 29.1 µM [inhibitor, single point].

Q: With CC(Sc1nnc(COc2ccccc2)n1-c1ccccc1)C(=O)O (stereo unspecified) as the compound, how does the Potency read?
A: The Potency was inconclusive: 2.82 µM [activator, partial curve, poor fit].

Q: Which Potency does the source give for CCOC(=O)c1c(S(=O)(=O)NCC(=O)Nc2cc(C)ccc2OC)c(C)n(C)c1C here?
A: The Potency was “inactive”.

Q: For CC(=C/c1ccccc1)/C=N/NC(=O)c1cnccn1, which Potency is on record?
A: The Potency was inconclusive: 7.08 µM [inhibitor, full curve, poor fit].

Q: Which Potency does the source give for O=C(Nc1cccc(Cl)c1)NC1CCCCC1 here?
A: Its Potency is inconclusive: 29.1 µM [inhibitor, single point].

Q: With Cc1ccccc1C(=O)OCc1cc(=O)n2nc(C3CC3)sc2n1 as the compound, how does the Potency read?
A: The Potency was “inactive”.

Q: With CCOC(=O)N1CCC(NC(=O)c2ccc3c(c2)N(Cc2cc(C)ccc2C)C(=O)c2ccccc2S3(=O)=O)CC1 as the compound, how does the Potency read?
A: Its Potency is “inactive”.

Q: For O=C(CN1C(=O)NC2(CCc3ccccc32)C1=O)NCC(F)(F)F (stereo unspecified), which Potency is on record?
A: Its Potency is “inactive”.

From PubChem BioAssay AID540256 (National Center for Advancing Translational Sciences (NCATS), 2011)
